Some entries share one result that the patent states for a list of compounds. Positions of bridges follow the written chain, without caps; N, C: chain ends. Non-standard residues stand in square brackets, D forms with d. Residues, ends and D or L forms follow the SMILES beside them. Bip(4'-COOH) = N[C@@H](Cc1ccc(-c2ccc(C(=O)O)cc2)cc1)C(=O)O; Bip(4'-NHAc) = CC(=O)Nc1ccc(-c2ccc(C[C@H](N)C(=O)O)cc2)cc1; Ala(morpholin-4-yl) = N[C@@H](CN1CCOCC1)C(=O)O; Bip = N[C@@H](Cc1ccc(-c2ccccc2)cc1)C(=O)O; Phe(4-NH2) = Nc1ccc(C[C@H](N)C(=O)O)cc1; 3Pal = N[C@@H](Cc1cccnc1)C(=O)O; Sar = CNCC(=O)O
biological target: TNFα (Homo sapiens, UniProt P01375); assay: TNF-Induced HEK-Blue Assay; assay type: cell-based; details: summary statement for all examples; read-out: IC50 values measured in the TNF induced HEK-Blue assay

Sequences of proteins named here, by UniProt entry; tags and fusion partners are left off. Residues count along the entry.
UniProt P01375, 77-233 limits assumed: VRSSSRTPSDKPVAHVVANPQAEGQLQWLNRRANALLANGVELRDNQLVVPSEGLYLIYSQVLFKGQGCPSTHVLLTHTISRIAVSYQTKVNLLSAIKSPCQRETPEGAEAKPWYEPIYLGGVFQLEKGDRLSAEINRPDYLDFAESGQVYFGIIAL

IC50, ≤ 25 µM:
CC(C)C[C@@H]1NC(=O)[C@H](Cc2ccc(O)cc2)NC(=O)[C@H](C(C)C)NC(=O)[C@@H]2CCCN2C(=O)[C@H](Cc2ccc(N)cc2)NC(=O)[C@H](CCCNC(=N)N)NC(=O)[C@H](CC(=O)O)NC(=O)[C@H](Cc2ccc(O)cc2)NC(=O)CN(C)C(=O)[C@H](Cc2ccc(-c3ccccc3)cc2)NC(=O)[C@H](Cc2ccc(-c3ccccc3)cc2)NC(=O)[C@H](CN2CCOCC2)NC(=O)CSC[C@@H](C(=O)NCC(N)=O)NC1=O [Example 112] ({CH2CO}-[Ala(morpholin-4-yl)][Bip][Bip][Sar]YDR[Phe(4-NH2)]PVYLCG-NH2; thioether N-13), CC(C)C[C@@H]1NC(=O)[C@H](Cc2ccc(O)cc2)NC(=O)[C@H](C(C)C)NC(=O)[C@@H]2CCCN2C(=O)[C@H](Cc2ccc(N)cc2)NC(=O)[C@H](CCCNC(=N)N)NC(=O)[C@H](CC(=O)O)NC(=O)[C@@H]2CCCN2C(=O)CN(C)C(=O)[C@H](Cc2ccc(-c3ccccc3)cc2)NC(=O)[C@H](Cc2ccc(-c3ccccc3)cc2)NC(=O)[C@H](CN2CCOCC2)NC(=O)CSC[C@@H](C(=O)NCC(N)=O)NC1=O [Example 113] ({CH2CO}-[Ala(morpholin-4-yl)][Bip][Bip][Sar]PDR[Phe(4-NH2)]PVYLCG-NH2; thioether N-13), CC(C)C[C@@H]1NC(=O)[C@H](CCCNC(=N)N)NC(=O)[C@H](C(C)C)NC(=O)[C@@H]2CCCN2C(=O)[C@H](Cc2cccnc2)NC(=O)[C@H](CCCNC(=N)N)NC(=O)[C@H](CC(=O)O)NC(=O)[C@H](Cc2ccc(O)cc2)NC(=O)CN(C)C(=O)[C@H](Cc2ccc(-c3ccccc3)cc2)NC(=O)[C@H](Cc2ccc(-c3ccccc3)cc2)NC(=O)[C@H](CN2CCOCC2)NC(=O)CSC[C@@H](C(=O)NCC(N)=O)NC1=O [Example 114] ({CH2CO}-[Ala(morpholin-4-yl)][Bip][Bip][Sar]YDR[3Pal]PVRLCG-NH2; thioether N-13), CC(C)C[C@@H]1NC(=O)[C@H](Cc2ccc(O)cc2)NC(=O)[C@H](C(C)C)NC(=O)[C@@H]2CCCN2C(=O)[C@H](Cc2cccnc2)NC(=O)[C@H](CCCNC(=N)N)NC(=O)[C@H](CC(=O)O)NC(=O)[C@H](Cc2ccc(O)cc2)NC(=O)CN(C)C(=O)[C@H](Cc2ccc(-c3ccccc3)cc2)NC(=O)[C@H](Cc2ccc(-c3ccccc3)cc2)NC(=O)[C@H](CN2CCOCC2)NC(=O)CSC[C@@H](C(=O)NCC(N)=O)NC1=O [Example 115] ({CH2CO}-[Ala(morpholin-4-yl)][Bip][Bip][Sar]YDR[3Pal]PVYLCG-NH2; thioether N-13), CC(C)C[C@@H]1NC(=O)[C@H](Cc2ccc(O)cc2)NC(=O)[C@H](C(C)C)NC(=O)[C@@H]2CCCN2C(=O)[C@H](Cc2cccnc2)NC(=O)[C@H](CCCNC(=N)N)NC(=O)[C@H](CC(=O)O)NC(=O)[C@@H]2CCCN2C(=O)CN(C)C(=O)[C@H](Cc2ccc(-c3ccccc3)cc2)NC(=O)[C@H](Cc2ccc(-c3ccccc3)cc2)NC(=O)[C@H](CN2CCOCC2)NC(=O)CSC[C@@H](C(=O)NCC(N)=O)NC1=O [Example 116] ({CH2CO}-[Ala(morpholin-4-yl)][Bip][Bip][Sar]PDR[3Pal]PVYLCG-NH2; thioether N-13), CC(C)C[C@@H]1NC(=O)[C@H](CCCNC(=N)N)NC(=O)[C@H](C(C)C)NC(=O)[C@@H]2CCCN2C(=O)[C@H](Cc2cccnc2)NC(=O)[C@@H](CCCNC(=N)N)NC(=O)[C@H](CC(=O)O)NC(=O)[C@H](Cc2ccc(O)cc2)NC(=O)CN(C)C(=O)[C@H](Cc2ccc(-c3ccccc3)cc2)NC(=O)[C@H](Cc2ccc(-c3ccccc3)cc2)NC(=O)[C@H](CN2CCOCC2)NC(=O)CSC[C@@H](C(=O)NCC(N)=O)NC1=O [Example 117] ({CH2CO}-[Ala(morpholin-4-yl)][Bip][Bip][Sar]YD[dR][3Pal]PVRLCG-NH2; thioether N-13), CC(C)C[C@@H]1NC(=O)[C@H](Cc2ccc(O)cc2)NC(=O)[C@H](C(C)C)NC(=O)[C@@H]2CCCN2C(=O)[C@H](Cc2cccnc2)NC(=O)[C@@H](CCCNC(=N)N)NC(=O)[C@H](CC(=O)O)NC(=O)[C@H](Cc2ccc(O)cc2)NC(=O)CN(C)C(=O)[C@H](Cc2ccc(-c3ccccc3)cc2)NC(=O)[C@H](Cc2ccc(-c3ccccc3)cc2)NC(=O)[C@H](CN2CCOCC2)NC(=O)CSC[C@@H](C(=O)NCC(N)=O)NC1=O [Example 118] ({CH2CO}-[Ala(morpholin-4-yl)][Bip][Bip][Sar]YD[dR][3Pal]PVYLCG-NH2; thioether N-13), CC(C)C[C@@H]1NC(=O)[C@H](Cc2ccc(O)cc2)NC(=O)[C@H](C(C)C)NC(=O)[C@@H]2CCCN2C(=O)[C@H](Cc2cccnc2)NC(=O)[C@@H](CCCNC(=N)N)NC(=O)[C@H](CC(=O)O)NC(=O)[C@@H]2CCCN2C(=O)CN(C)C(=O)[C@H](Cc2ccc(-c3ccccc3)cc2)NC(=O)[C@H](Cc2ccc(-c3ccccc3)cc2)NC(=O)[C@H](CN2CCOCC2)NC(=O)CSC[C@@H](C(=O)NCC(N)=O)NC1=O [Example 119] ({CH2CO}-[Ala(morpholin-4-yl)][Bip][Bip][Sar]PD[dR][3Pal]PVYLCG-NH2; thioether N-13), CC(C)C[C@@H]1NC(=O)[C@H](CCCNC(=N)N)NC(=O)[C@H](C(C)C)NC(=O)[C@@H]2CCCN2C(=O)[C@H](C(C)C)NC(=O)[C@H](CCCNC(=N)N)NC(=O)[C@H](CC(=O)O)NC(=O)[C@@H]2CCCN2C(=O)CN(C)C(=O)[C@H](Cc2ccc(-c3ccccc3)cc2)NC(=O)[C@H](Cc2ccc(-c3ccc(C(=O)O)cc3)cc2)NC(=O)[C@H](CN2CCOCC2)NC(=O)CSC[C@@H](C(=O)NCC(N)=O)NC1=O [Example 120] ({CH2CO}-[Ala(morpholin-4-yl)][Bip(4'-COOH)][Bip][Sar]PDRVPVRLCG-NH2; thioether N-13), CC(C)C[C@@H]1NC(=O)[C@H](Cc2ccc(O)cc2)NC(=O)[C@H](C(C)C)NC(=O)[C@@H]2CCCN2C(=O)[C@H](C(C)C)NC(=O)[C@H](CCCNC(=N)N)NC(=O)[C@H](CC(=O)O)NC(=O)[C@H](Cc2ccc(O)cc2)NC(=O)CN(C)C(=O)[C@H](Cc2ccc(-c3ccccc3)cc2)NC(=O)[C@H](Cc2ccc(-c3ccc(C(=O)O)cc3)cc2)NC(=O)[C@H](CN2CCOCC2)NC(=O)CSC[C@@H](C(=O)NCC(N)=O)NC1=O [Example 121] ({CH2CO}-[Ala(morpholin-4-yl)][Bip(4'-COOH)][Bip][Sar]YDRVPVYLCG-NH2; thioether N-13), CC(C)C[C@@H]1NC(=O)[C@H](CCCNC(=N)N)NC(=O)[C@H](C(C)C)NC(=O)[C@@H]2CCCN2C(=O)[C@H](Cc2ccc(O)cc2)NC(=O)[C@H](CCCNC(=N)N)NC(=O)[C@H](CC(=O)O)NC(=O)[C@@H]2CCCN2C(=O)CN(C)C(=O)[C@H](Cc2ccc(-c3ccccc3)cc2)NC(=O)[C@H](Cc2ccc(-c3ccc(C(=O)O)cc3)cc2)NC(=O)[C@H](CN2CCOCC2)NC(=O)CSC[C@@H](C(=O)NCC(N)=O)NC1=O [Example 122] ({CH2CO}-[Ala(morpholin-4-yl)][Bip(4'-COOH)][Bip][Sar]PDRYPVRLCG-NH2; thioether N-13), CC(C)C[C@@H]1NC(=O)[C@H](CCCNC(=N)N)NC(=O)[C@H](C(C)C)NC(=O)[C@@H]2CCCN2C(=O)[C@H](C(C)C)NC(=O)[C@@H](CCCNC(=N)N)NC(=O)[C@H](CC(=O)O)NC(=O)[C@@H]2CCCN2C(=O)CN(C)C(=O)[C@H](Cc2ccc(-c3ccccc3)cc2)NC(=O)[C@H](Cc2ccc(-c3ccc(C(=O)O)cc3)cc2)NC(=O)[C@H](CN2CCOCC2)NC(=O)CSC[C@@H](C(=O)NCC(N)=O)NC1=O [Example 123] ({CH2CO}-[Ala(morpholin-4-yl)][Bip(4'-COOH)][Bip][Sar]PD[dR]VPVRLCG-NH2; thioether N-13), CC(C)C[C@@H]1NC(=O)[C@H](Cc2ccc(O)cc2)NC(=O)[C@H](C(C)C)NC(=O)[C@@H]2CCCN2C(=O)[C@H](C(C)C)NC(=O)[C@H](CCCNC(=N)N)NC(=O)[C@H](CC(=O)O)NC(=O)[C@@H]2CCCN2C(=O)CN(C)C(=O)[C@H](Cc2ccc(-c3ccccc3)cc2)NC(=O)[C@H](Cc2ccc(-c3ccc(C(=O)O)cc3)cc2)NC(=O)[C@H](CN2CCOCC2)NC(=O)CSC[C@@H](C(=O)NCC(N)=O)NC1=O [Example 124] ({CH2CO}-[Ala(morpholin-4-yl)][Bip(4'-COOH)][Bip][Sar]PDRVPVYLCG-NH2; thioether N-13), CC(=O)Nc1ccc(-c2ccc(C[C@@H]3NC(=O)[C@H](Cc4ccc(-c5ccccc5)cc4)NC(=O)[C@H](CN4CCOCC4)NC(=O)CSC[C@@H](C(=O)NCC(N)=O)NC(=O)[C@H](CC(C)C)NC(=O)[C@H](Cc4ccc(O)cc4)NC(=O)[C@H](C(C)C)NC(=O)[C@@H]4CCCN4C(=O)[C@H](C(C)C)NC(=O)[C@@H](CCCNC(=N)N)NC(=O)[C@H](CC(=O)O)NC(=O)[C@@H]4CCCN4C(=O)CN(C)C3=O)cc2)cc1 [Example 125] ({CH2CO}-[Ala(morpholin-4-yl)][Bip][Bip(4'-NHAc)][Sar]PD[dR]VPVYLCG-NH2; thioether N-13), CC(=O)Nc1ccc(-c2ccc(C[C@@H]3NC(=O)[C@H](Cc4ccc(-c5ccccc5)cc4)NC(=O)[C@H](CN4CCOCC4)NC(=O)CSC[C@@H](C(=O)NCC(N)=O)NC(=O)[C@H](CC(C)C)NC(=O)[C@H](CCCNC(=N)N)NC(=O)[C@H](C(C)C)NC(=O)[C@@H]4CCCN4C(=O)[C@H](C(C)C)NC(=O)[C@H](CCCNC(=N)N)NC(=O)[C@H](CC(=O)O)NC(=O)[C@@H]4CCCN4C(=O)CN(C)C3=O)cc2)cc1 [Example 126] ({CH2CO}-[Ala(morpholin-4-yl)][Bip][Bip(4'-NHAc)][Sar]PDRVPVRLCG-NH2; thioether N-13), CC(=O)Nc1ccc(-c2ccc(C[C@@H]3NC(=O)[C@H](Cc4ccc(-c5ccccc5)cc4)NC(=O)[C@H](CN4CCOCC4)NC(=O)CSC[C@@H](C(=O)NCC(N)=O)NC(=O)[C@H](CC(C)C)NC(=O)[C@H](CCCNC(=N)N)NC(=O)[C@H](C(C)C)NC(=O)[C@@H]4CCCN4C(=O)[C@H](Cc4ccc(O)cc4)NC(=O)[C@H](CCCNC(=N)N)NC(=O)[C@H](CC(=O)O)NC(=O)[C@@H]4CCCN4C(=O)CN(C)C3=O)cc2)cc1 [Example 127] ({CH2CO}-[Ala(morpholin-4-yl)][Bip][Bip(4'-NHAc)][Sar]PDRYPVRLCG-NH2; thioether N-13)
